Patent publication US20070197432A1, “Peptides for preventing, diagnosing and treating animal and/or human leptospirosis” (priority 2002, published 2007)
No end group written: not given here.

Tested on: IgM and IgG antibodies in dog sera
Assay: Diagnostic ELISA of dog sera against PP peptide or recombinant PPL protein
Format: binding
Conditions: sera from SPF dogs immunized against leptospirosis (3039, 3051, 3058)

KAKPVQKLDDDDDGDDTYKEERHNK [PP peptide, 25 amino acid peptide, fragment aa153-aa177 of the PPL protein of Leptospira interrogans]
IgG response against the antigen, OD: < 0.25
